Reference: publication PMC4935975, “A neomorphic cancer cell-specific role of MAGE-A4 in trans-lesion synthesis” (Nature Communications, 2016)
No constants are given. Whether binding was seen depends on the method and setting. In cells and extracts the contact can be indirect. A yes stands for co-enrichment or nearness to the bait. Other partners may have been found.

Protein sequences, listed by entry. Tags and fused reporters are not part of them. Lines headed by an entry give the natural chain unless they say otherwise; changes in a name come on top. Chains listed by the source or under a name are the forms on record and can include a tag or linker.
UniProt Q9NS91: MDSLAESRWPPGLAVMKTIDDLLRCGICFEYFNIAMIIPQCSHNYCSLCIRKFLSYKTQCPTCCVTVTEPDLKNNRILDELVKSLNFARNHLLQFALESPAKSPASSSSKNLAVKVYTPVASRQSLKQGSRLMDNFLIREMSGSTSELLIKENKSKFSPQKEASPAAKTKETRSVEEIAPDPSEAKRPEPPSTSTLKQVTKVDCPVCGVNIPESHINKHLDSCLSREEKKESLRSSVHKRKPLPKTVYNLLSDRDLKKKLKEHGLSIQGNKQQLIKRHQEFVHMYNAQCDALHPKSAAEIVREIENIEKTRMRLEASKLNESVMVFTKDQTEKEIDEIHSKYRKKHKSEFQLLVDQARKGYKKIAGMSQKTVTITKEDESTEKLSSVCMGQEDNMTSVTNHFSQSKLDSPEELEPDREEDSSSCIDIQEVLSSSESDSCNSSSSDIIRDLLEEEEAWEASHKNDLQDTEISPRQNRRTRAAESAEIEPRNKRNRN
HA–RAD18 Δ402-444 (Q9NS91, form named): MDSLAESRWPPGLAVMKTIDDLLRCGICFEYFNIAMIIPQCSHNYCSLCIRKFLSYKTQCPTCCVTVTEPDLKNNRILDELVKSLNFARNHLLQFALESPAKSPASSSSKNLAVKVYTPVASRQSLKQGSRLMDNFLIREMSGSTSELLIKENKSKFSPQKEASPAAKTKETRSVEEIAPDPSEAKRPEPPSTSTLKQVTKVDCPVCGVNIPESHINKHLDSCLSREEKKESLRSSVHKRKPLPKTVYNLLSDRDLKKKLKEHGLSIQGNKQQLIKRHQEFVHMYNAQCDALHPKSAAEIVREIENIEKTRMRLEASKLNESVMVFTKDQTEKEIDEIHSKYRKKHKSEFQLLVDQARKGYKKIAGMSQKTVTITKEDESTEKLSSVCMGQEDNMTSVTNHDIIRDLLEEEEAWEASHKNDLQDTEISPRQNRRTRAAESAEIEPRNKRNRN
UniProt P43358: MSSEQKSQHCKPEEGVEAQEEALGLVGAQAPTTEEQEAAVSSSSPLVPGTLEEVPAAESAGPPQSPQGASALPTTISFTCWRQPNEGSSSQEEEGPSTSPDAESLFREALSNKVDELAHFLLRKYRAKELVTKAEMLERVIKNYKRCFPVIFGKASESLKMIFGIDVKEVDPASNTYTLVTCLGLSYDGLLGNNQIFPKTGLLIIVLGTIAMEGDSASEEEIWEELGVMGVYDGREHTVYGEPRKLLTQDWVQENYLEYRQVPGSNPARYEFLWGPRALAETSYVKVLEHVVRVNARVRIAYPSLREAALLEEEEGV
UniProt P12004: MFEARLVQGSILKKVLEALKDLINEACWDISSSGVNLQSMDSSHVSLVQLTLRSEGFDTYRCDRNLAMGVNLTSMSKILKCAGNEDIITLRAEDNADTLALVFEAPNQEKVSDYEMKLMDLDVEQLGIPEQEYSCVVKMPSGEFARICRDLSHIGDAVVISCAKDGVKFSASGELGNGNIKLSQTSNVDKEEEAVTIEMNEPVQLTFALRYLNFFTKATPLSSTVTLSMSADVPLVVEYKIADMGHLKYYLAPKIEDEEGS

Key:
[1] = target: HA–RAD18 Δ402-444 (UniProt Q9NS91); assay: affinity purification with mass spectrometry; label-free APMS; HA–RAD18 WT or Δ402-444 expressed in H1299 cells, undamaged or treated with ultraviolet or camptothecin; CSK lysate digested with DNase I and sonicated; anti-HA magnetic beads, 4 °C, 3 h; SAINT scoring
[2] = target: HA–RAD18 wild type (UniProt Q9NS91); assay: as above

| Substance | binding [1] | binding [2] |
| --- | --- | --- |
| melanoma antigen-A4 (MAGE-A4) (from UniProt P43358 1-317) | binds | binds |
| proliferating cell nuclear antigen (PCNA) (from UniProt P12004 1-261) |  | binds |
